Record: PubChem BioAssay AID1508597 (Cure First, 2020)

Purpose: 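Survival screen with siRNA in ovarian cancer cells derived from patients, with or without rucaparib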 (primary screen)
Cell system: human ovarian carcinoma lines grown from tumours: OCI-P5x (papillary serous) and OCI-C5x (clear cell)
Knock-down reagent: siRNA pool against human genes, 1.25 pmol siRNA per well
Time to read-out: 72 h or 96 h, depending on the cell culture
Challenge: rucaparib 20 µM (about IC30) or vehicle, present until read-out
Rucaparib or vehicle: Vehicle
Cell line: OCI-P5x (serous)
Read-out: 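ATP luminescence measured at 72 or 96 h according to the culture, then normalised and expressed as percent viability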
Scale: viability, normalised: higher = more viable cells remaining
Call rule: 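a well counts as a hit if its normalised viability is under 80 percent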
Meaning of the calls: active = viability under 80%; inactive = viability 80% or more
This is a random part of the about 2,100 reagents, under one of the conditions tested. 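Calls flag viability under 80% in either arm, not effects specific to rucaparib; the reference for percent is not stated.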 A reagent listed more than once was tested more than once; the source does not tell the runs apart. The record does not give: the 100% reference.

PARP12 (GeneID 64761), technical replicate 1 → viability, normalised (%) = 50.7; call = active
PARP12 (GeneID 64761), technical replicate 2 → viability, normalised (%) = 74.6; call = active
PARP12 (GeneID 64761), technical replicate 3 → viability, normalised (%) = 80.2; call = inactive
SOX14 (GeneID 8403), technical replicate 1 → viability, normalised (%) = 47.4; call = active
SOX14 (GeneID 8403), technical replicate 2 → viability, normalised (%) = 46.7; call = active
SOX14 (GeneID 8403), technical replicate 3 → viability, normalised (%) = 58.7; call = active
PAK2 (GeneID 5062), technical replicate 1 → viability, normalised (%) = 72.5; call = active
PAK2 (GeneID 5062), technical replicate 2 → viability, normalised (%) = 72.3; call = active
PAK2 (GeneID 5062), technical replicate 3 → viability, normalised (%) = 78.1; call = active
RAD21 (GeneID 5885), technical replicate 1 → viability, normalised (%) = 58; call = active
RAD21 (GeneID 5885), technical replicate 1 → viability, normalised (%) = 58.3; call = active
RAD21 (GeneID 5885), technical replicate 2 → viability, normalised (%) = 48.5; call = active
RAD21 (GeneID 5885), technical replicate 2 → viability, normalised (%) = 78.6; call = active
RAD21 (GeneID 5885), technical replicate 3 → viability, normalised (%) = 71.9; call = active
RAD21 (GeneID 5885), technical replicate 3 → viability, normalised (%) = 54.9; call = active
PLCG2 (GeneID 5336), technical replicate 1 → viability, normalised (%) = 79.6; call = active
PLCG2 (GeneID 5336), technical replicate 2 → viability, normalised (%) = 84.4; call = inactive
PLCG2 (GeneID 5336), technical replicate 3 → viability, normalised (%) = 84.9; call = inactive
TNRC6B (GeneID 23112), technical replicate 1 → viability, normalised (%) = 95.6; call = inactive
TNRC6B (GeneID 23112), technical replicate 2 → viability, normalised (%) = 117; call = inactive
TNRC6B (GeneID 23112), technical replicate 3 → viability, normalised (%) = 123; call = inactive
